Data on two molecules can be found in doi:10.1101/2022.01.28.478199.

Chains of the proteins cited; added tags and fusions are not shown. Lines headed by an entry give the natural chain unless they say otherwise; changes in a name come on top.
UniProt P33416: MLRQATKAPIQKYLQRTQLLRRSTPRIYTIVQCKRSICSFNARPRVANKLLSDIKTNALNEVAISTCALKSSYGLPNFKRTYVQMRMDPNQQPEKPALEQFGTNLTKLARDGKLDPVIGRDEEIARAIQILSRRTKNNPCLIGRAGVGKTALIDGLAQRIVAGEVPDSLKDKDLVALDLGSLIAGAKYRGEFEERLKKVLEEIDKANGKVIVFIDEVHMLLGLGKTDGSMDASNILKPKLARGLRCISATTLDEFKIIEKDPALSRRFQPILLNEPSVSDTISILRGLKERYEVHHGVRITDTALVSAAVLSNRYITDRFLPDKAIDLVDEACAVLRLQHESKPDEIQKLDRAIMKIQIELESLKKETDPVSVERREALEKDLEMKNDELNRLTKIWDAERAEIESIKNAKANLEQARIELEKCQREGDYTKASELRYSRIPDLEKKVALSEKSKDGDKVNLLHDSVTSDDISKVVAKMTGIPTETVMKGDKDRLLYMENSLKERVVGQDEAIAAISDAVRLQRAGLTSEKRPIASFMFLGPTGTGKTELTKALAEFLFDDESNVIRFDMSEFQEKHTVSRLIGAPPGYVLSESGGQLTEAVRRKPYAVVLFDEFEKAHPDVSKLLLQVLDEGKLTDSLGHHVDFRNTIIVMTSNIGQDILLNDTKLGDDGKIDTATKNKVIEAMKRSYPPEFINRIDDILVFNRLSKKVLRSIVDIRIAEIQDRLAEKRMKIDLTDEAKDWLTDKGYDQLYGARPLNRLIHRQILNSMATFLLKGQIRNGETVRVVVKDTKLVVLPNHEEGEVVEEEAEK

The test deals with Hsp78TR-6xHis (Hsp78 E216Q/E614Q Walker B mutant with a C-terminal 6x polyhistidine-tag) (S. cerevisiae) (UniProt P33416). As to the kind of experiment: pull-down.

Results are given in words; binding and its absence hold for the method and conditions named. In cells and extracts the contact can be indirect. Binding can be weak; no strength is given.

B1: Mdh1 (protein, UniProt P17505 18-334)
chain: YKVTVLGAGGGIGQPLSLLLKLNHKVTDLRLYDLKGAKGVATDLSHIPTNSVVKGFTPEEPDGLNNALKDTDMVLIPAGVPRKPGMTRDDLFAINASIVRDLAAATAESAPNAAILVISNPVNSTVPIVAQVLKNKGVYNPKKLFGVTTLDSIRAARFISEVENTDPTQERVNVIGGHSGITIIPLISQTNHKLMSDDKRHELIHRIQFGGDEVVKAKNGAGSATLSMAHAGAKFANAVLSGFKGERDVIEPSFVDSPLFKSEGIEFFASPVTLGPDGIEKIHPIGELSSEEEEMLQKCKETLKKNIEKGVNFVASK
For the molecule B1, the binding result is given as “no binding”.

B2: Mdj1 (member of the DnaJ co-chaperone family of the mitochondrial Hsp70 system) (protein, UniProt P35191 56-511)
chain: NEAFKDPYDTLGLKKSATGAEIKKAYYKLAKKYHPDINKEPDAEKKFHDLQNAYEILSDETKRQQYDQFGPAAFGGGGAAGGAGGGSGSPFGSQFHDFSGFTSAGGSPFGGINFEDLFGAAFGGGGRGSGGASRSSSMFRQYRGDPIEIVHKVSFKDAVFGSKNVQLRFSALDPCSTCSGTGMKPNTHKVSCSTCHGTGTTVHIRGGFQMMSTCPTCNGEGTMKRPQDNCTKCHGEGVQVNRAKTITVDLPHGLQDGDVVRIPGQGSYPDIAVEADLKDSVKLSRGDILVRIRVDKDPNFSIKNKYDIWYDKEIPITTAALGGTVTIPTVEGQKIRIKVAPGTQYNQVISIPNMGVPKTSTIRGDMKVQYKIVVKKPQSLAEKCLWEALADVTNDDMAKKTMQPGTAAGTAINEEILKKQKQEEEKHAKKDDDNTLKRLENFITNTFRKIKGDKKN
Regarding B2, the binding entry is “binds”.
